Laboratory results reported in patent US10711246B2, “Methods and compositions for generating epicardium cells” (UNIVERSITY HEALTH NETWORK, priority 2013, dated 2020).
For some assays here: For at least one compound, name, drawing or mass did not settle the structure. Some results were stated once for a whole list of compounds, not compound by compound.

How the values were obtained:
hESC-derived mesoderm = assay: Cardiomyocyte specification from hESC-derived day 4 mesoderm, cTnT+ cells at day 15 by flow cytometry; type: cell-based, human; conditions: added to day 4 mesoderm during specification step; high levels of BMP4 or inhibitors; analysed day 15
Procedure: FIG. 1. Cardiomyocyte specification from hESCs. Scheme of the protocol used to differentiate hESCs towards the cardiomyocyte lineage highlighting the three main stages of development: 1) mesoderm induction, 2) cardiovascular specification and 3) maturation. Cells from ActivinA/BMP4-induced day 4 embryoid bodies (EBs) are plated as a monolayer on gelatin coated wells. […] Following specification, the cultures were maintained in VEGF for 9 days and then analyzed for the presence of cTnT+ cardiomyocytes by flow cytometry. FIG. 2. […] (a) Flow cytometric analyses showing the presence of the KDR+ and PDGFRα+ populations at day 4 and day 5 and the cTnT+ expression on day 15 of culture following no treatment (control), treatment with BMP4 (10 ng/ml) or the BMP4 inhibitor Noggin (400 ng/ml). (b) Total cell numbers per well at day 15 in the cultures treated as above. Error bars represent standard deviation from the mean from three experiments. FIG. 3. […] Graphical representation of flow cytometry analyses indicating the percent cTnT^+ cells in day 15 cultures generated from populations treated with the indicated amounts of BMP4 or Noggin. NT=no treatment. Bars represent standard deviation from the mean of the values from three independent experiments (N=3); *P≤0.05, **P≤0.01 when compared to no treatment. FIG. 9. […]

hPSC-derived Epi cells = assay: Matrigel invasion assay eight days after EMT induction, confocal microscopy and 3D reconstruction; type: cell-based, human; conditions: eight days following induction of EMT
Text: (a) Representative fields of view in the XY plane (top view) and 3D reconstruction (side view) of the matrigel invasion assay on D8 after EMT induction.
(b) Maximum matrigel invasion depth on D8 following EMT initiation. Bars represent standard error of the mean of the values from three independent experiments (N=3); **P≤0.01 compared to non-treated controls as analyzed by Student's T-test.
It is well established that during heart development EPDCs, and in particular cardiac fibroblasts, invade the myocardial layer^33. To assess this potential of the hPSC-derived Epi cells, their ability to invade a 3D layer of Matrigel following induction of EMT with the different factors was measured. To enable us to easily track the migration of the cells, the Epi population was generated from GFP expressing hESCs^48. Matrigel invasion was monitored eight days following the induction of EMT by confocal microscopy and evaluated using 3D image reconstruction (FIG. 16a). […] Along with invasion, bFGF treatment also led to an increase in total cell number within the regions of interest (ROI). […] To further quantify the degree of invasion, the proportion of cells in each population that migrated to different depths was calculated. Virtually all of the cells in the non-induced, the TGFβ-induced and TGFβ+bFGF-induced populations were detected within the first 200 μm of the gel. […]

Compound	cardiomyocyte development / specification (hESC-derived mesoderm)	depth of the gel within which virtually all of the cells were detected (hPSC-derived Epi cells)
c1cc(-c2cnn3cc(-c4ccc(OCCN5CCCCC5)cc4)cnc23)ccn1 [dorsomorphin, reference compound]	completely blocked cardiomyocyte development	
TGFβ-1		≤ 200 μm
